By UniProt entry, the sequences of proteins in these tests, tags left out.
UniProt P67809: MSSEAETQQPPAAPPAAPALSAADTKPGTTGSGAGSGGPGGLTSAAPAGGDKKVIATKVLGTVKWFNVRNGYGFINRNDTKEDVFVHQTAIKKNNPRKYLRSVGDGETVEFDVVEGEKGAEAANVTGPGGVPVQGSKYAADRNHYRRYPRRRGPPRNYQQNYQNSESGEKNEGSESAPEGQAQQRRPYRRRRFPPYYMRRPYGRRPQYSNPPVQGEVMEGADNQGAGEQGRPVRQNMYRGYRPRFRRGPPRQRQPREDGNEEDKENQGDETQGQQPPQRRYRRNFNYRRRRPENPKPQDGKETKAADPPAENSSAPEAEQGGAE
UniProt P38919: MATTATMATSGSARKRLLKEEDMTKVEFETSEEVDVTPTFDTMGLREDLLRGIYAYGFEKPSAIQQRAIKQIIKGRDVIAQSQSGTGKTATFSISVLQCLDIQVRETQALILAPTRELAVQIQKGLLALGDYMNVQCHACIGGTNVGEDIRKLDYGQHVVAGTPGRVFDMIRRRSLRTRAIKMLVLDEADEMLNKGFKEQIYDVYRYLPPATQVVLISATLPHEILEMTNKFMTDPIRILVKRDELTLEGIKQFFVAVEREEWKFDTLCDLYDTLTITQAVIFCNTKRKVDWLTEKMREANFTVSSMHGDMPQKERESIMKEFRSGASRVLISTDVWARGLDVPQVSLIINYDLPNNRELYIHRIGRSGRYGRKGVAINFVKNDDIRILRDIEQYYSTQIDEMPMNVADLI
UniProt Q04637: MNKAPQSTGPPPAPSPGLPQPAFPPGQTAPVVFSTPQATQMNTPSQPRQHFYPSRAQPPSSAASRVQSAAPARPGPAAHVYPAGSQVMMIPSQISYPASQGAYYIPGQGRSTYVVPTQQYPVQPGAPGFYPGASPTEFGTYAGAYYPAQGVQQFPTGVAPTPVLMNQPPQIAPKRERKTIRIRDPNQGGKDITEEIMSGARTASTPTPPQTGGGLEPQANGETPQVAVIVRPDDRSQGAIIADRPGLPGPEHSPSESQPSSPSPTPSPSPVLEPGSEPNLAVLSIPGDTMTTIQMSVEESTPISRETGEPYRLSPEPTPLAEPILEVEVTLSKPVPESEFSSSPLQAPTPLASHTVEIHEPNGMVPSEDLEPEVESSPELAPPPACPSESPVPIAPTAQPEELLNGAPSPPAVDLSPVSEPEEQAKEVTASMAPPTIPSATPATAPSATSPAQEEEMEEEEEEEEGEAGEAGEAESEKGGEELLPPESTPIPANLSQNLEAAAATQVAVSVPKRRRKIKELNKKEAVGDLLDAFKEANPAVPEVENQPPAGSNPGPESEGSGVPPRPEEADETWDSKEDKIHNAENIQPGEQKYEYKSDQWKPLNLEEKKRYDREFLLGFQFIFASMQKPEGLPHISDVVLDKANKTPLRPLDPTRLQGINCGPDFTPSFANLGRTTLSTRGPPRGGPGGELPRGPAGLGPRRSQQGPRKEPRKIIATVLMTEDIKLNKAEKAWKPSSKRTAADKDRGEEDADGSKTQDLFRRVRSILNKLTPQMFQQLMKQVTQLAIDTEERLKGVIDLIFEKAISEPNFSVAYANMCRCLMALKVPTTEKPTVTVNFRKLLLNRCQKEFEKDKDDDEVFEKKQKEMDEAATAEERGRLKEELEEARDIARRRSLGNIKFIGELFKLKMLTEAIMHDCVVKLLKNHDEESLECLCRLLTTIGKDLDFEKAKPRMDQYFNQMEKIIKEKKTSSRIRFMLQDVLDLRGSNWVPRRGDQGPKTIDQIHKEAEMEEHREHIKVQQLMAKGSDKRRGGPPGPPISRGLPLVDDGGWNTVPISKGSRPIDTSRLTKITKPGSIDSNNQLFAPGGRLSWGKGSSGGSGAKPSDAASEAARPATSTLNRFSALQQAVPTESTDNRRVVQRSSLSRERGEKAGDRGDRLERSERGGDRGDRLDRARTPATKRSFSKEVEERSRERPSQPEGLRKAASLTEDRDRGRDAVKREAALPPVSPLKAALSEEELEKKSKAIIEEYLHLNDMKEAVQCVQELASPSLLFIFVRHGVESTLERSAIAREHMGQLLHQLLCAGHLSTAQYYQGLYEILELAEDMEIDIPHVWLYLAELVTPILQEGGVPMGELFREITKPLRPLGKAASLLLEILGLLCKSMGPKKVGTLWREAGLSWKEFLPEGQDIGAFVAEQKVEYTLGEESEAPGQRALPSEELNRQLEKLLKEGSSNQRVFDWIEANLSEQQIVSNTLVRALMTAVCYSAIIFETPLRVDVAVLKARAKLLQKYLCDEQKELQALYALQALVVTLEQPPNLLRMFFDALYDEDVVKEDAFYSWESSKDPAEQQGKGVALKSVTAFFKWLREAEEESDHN
UniProt P60842: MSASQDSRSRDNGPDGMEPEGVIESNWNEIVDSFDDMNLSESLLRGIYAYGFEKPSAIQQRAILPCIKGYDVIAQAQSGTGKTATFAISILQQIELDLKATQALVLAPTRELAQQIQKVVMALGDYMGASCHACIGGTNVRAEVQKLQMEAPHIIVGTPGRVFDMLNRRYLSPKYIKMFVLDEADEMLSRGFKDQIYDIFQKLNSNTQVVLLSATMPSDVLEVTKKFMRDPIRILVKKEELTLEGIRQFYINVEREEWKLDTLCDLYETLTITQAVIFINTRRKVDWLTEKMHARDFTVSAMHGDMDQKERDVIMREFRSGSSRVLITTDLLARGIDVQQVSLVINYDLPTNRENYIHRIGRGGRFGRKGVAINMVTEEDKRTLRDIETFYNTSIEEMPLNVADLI

Results are given in words; binding and its absence hold for the method and conditions named. Binding seen in cells or lysates may run through a third protein. A yes stands for co-enrichment or nearness to the bait. Other partners may have been found.
What follows are substances tested against YBX1, endogenous (human (endogenous in Huh7 and HepG2)) (UniProt P67809) (assay: affinity purification with mass spectrometry; IP of endogenous YBX1 with anti-YBX1 (IgG as control) from Huh7 and HepG2 lysates, silver staining, bands excised, MS/MS (4D label free/DIA)).
In the case of “EIF4A3, endogenous (from UniProt P38919 1-411)”, the binding is reported as “binds”. With “EIF4G1, endogenous (from UniProt Q04637 1-1599)” the binding was “binds weakly”. For “Eukaryotic Translation Initiation Factor 4A1 (EIF4A1), endogenous (from UniProt P60842 1-406)”, the binding was “binds”.

From article PMC11910144
